Data: doi:10.1101/261842
Results are given in words; binding and its absence hold for the method and conditions named. In cells and extracts the contact can be indirect. Binding calls can cover weak binding; strength is not graded here.

Target: GST conjugated GGA3 effector binding domain (UniProt Q9NZ52)
Experiment: pull-down

binding: binds
Substance: Arf1 (active, GTP-bound form) (from UniProt P84078 1-181)
